Here are results for one substance from publication PMC12071194.

Chains of the proteins cited; added tags and fusions are not shown.
UniProt O60238: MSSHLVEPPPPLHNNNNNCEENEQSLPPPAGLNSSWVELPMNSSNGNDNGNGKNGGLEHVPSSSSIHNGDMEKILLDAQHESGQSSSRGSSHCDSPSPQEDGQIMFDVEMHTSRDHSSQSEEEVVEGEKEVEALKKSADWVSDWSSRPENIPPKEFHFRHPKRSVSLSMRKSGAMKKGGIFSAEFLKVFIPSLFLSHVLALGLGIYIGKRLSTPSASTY
UniProt Q6ZNE5: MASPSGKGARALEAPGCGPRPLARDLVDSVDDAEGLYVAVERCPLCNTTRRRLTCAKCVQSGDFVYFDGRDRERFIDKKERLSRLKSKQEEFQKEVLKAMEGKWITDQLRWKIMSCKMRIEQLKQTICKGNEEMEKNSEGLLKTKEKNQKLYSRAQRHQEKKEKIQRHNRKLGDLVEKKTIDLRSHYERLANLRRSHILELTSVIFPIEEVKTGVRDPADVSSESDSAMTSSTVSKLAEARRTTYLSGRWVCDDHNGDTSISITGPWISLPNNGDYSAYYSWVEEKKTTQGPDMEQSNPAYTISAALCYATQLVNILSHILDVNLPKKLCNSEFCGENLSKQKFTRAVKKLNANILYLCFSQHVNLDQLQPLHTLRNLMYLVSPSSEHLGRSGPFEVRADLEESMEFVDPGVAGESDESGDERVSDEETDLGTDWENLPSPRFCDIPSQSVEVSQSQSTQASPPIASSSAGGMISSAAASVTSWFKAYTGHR

The experiment concerns the target mCherry-NIX (WT) (UniProt O60238). Briefly: co-IP; RFP-trap magnetic agarose on lysates (0.5% triton X-100 buffer) of B/N DKO HeLa cells expressing mCherry-BNIP3 or mCherry-NIX; cells cultured with 1 mM DFP for 12 h, then 12 h more with 100 nM bafilomycin A1 and DFP; immunoblot.

No constants are given. Whether binding was seen depends on the method and setting. Binding seen in cells or lysates may run through a third protein.

Regarding Atg14 (from UniProt Q6ZNE5 1-492), the binding entry is “no binding”.
